The experiment concerns the target σ1R-RLuc (sigma-1 receptor fused to Renilla luciferase) (human) (UniProt Q99720). Briefly: FRET or BRET; BRET saturation in living HEK-293T cells: constant cDNA for the Rluc donor (AT2R-RLuc 0.9 μg or σ1-RLuc 0.75 μg) and increasing cDNA for the YFP acceptor (0.5 to 4 μg or 0.1 to 4 μg); 20 μg of cell suspension, 5 μM coelenterazine H, read at 485 and 530 nm. For orientation: Bioluminescence resonance energy transfer reports proximity on the nanometre scale.

Chains of the proteins cited; added tags and fusions are not shown.
UniProt Q99720: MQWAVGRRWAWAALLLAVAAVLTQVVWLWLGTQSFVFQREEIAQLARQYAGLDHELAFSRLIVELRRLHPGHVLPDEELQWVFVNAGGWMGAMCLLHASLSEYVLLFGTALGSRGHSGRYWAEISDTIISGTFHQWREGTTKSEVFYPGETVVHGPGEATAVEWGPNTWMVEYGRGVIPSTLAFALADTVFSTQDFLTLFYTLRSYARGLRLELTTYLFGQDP

These are yes or no findings as the source states them, for the method shown. In cells and extracts the contact can be indirect. Where a sequence is shown, tags or fusion partners need not be part of it.

B1: AT2R-YFP (angiotensin AT2 receptor fused to yellow fluorescent protein) (receptor, UniProt P50052 1-363)
chain: MKGNSTLATTSKNITSGLHFGLVNISGNNESTLNCSQKPSDKHLDAIPILYYIIFVIGFLVNIVVVTLFCCQKGPKKVSSIYIFNLAVADLLLLATLPLWATYYSYRYDWLFGPVMCKVFGSFLTLNMFASIFFITCMSVDRYQSVIYPFLSQRRNPWQASYIVPLVWCMACLSSLPTFYFRDVRTIEYLGVNACIMAFPPEKYAQWSAGIALMKNILGFIIPLIFIATCYFGIRKHLLKTNSYGKNRITRDQVLKMAAAVVLAFIICWLPFHVLTFLDALAWMGVINSCEVIAVIDLALPFAILLGFTNSCVNPFLYCFVGNRFQQKLRSVFRVPITWLQGKRESMSCRKSSSLREMETFVS
Regarding B1, the binding result was “no binding”.

These data come from PMC7430099.
